Measurements reported in patent publication US5801178A, “Aniline derivative having polyunsaturated fatty acid residue and use thereof” (Nippon Shoji Kaish Ltd., priority 1995, dated 1998).
Some of these results come from one statement about several compounds together.

Assay: Acute toxicity, oral, mice
Assay type: in vivo, Male slc:ICR mice
Conditions: single oral administration in corn oil, 14 days observation
Method: Male slc:ICR mice (4 weeks of age, Japan SLC Inc.) were bred for 7 days on a normal diet (solid diet for test animals, Labo MR stock-SLC, manufactured by Japan SLC Inc.). Then, the mice were fasted for 16 hours and divided into 5 per group. The mice were forcibly administered orally with the test compound (Compounds 4, 5 and 9-12) dissolved in corn oil. The mice were further bred on a normal diet for 14 days to observe acute toxicity.

Row | Compound | minimum lethal dose
1 | CCC=CCC=CCC=CCC=CCC=CCC=CCCC(=O)Nc1c(CC)cccc1CC [Compound 10, N-(2,6-diethylphenyl)-4,7,10,13,16,19-docosahexaenamide] | ≥ 2,000 mg/kg
2 | CCC=CCC=CCC=CCC=CCC=CCC=CCCC(=O)Nc1c(C(C)C)cccc1C(C)C [Compound 12, N-(2,6-diisopropylphenyl)-4,7,10,13,16,19-docosahexaenamide] | ≥ 2,000 mg/kg
